The record followed here is the supplement of paper PMC8728848.

Some of the results follow.

Common to all, as to experiment: glycan array binding signal (z-score within array); higher = stronger binding
Holding throughout (details): glycan notation: IUPAC condensed, linker removed

The target of assay [1] is GlcNAc(b1-3)Gal(b1-4)GlcNAc(b1-2)[GlcNAc(b1-3)Gal(b1-4)GlcNAc(b1-6)]Man(a1-6)[GlcNAc(b1-3)Gal(b1-4)GlcNAc(b1-2)Man(a1-3)]Man(b1-4)GlcNAc(b1-4)GlcNAc. A digest of the protocol: (§1)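 The binding signal is a Z-score computed within each array. Data were drawn from 3228 arrays in the Consortium for Functional Glycomics database, restricted to those with a known protein sequence. Scores were averaged over arrays of the same protein sequence at different concentrations or buffers, and over linkers, and negative values can be taken as non-binding.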

The target in assay [2] is GlcNAc(b1-3)Gal(b1-4)GlcNAc(b1-3)Gal(b1-4)GlcNAc. A digest of the protocol:
as §1

In assay [3] the target is GlcNAc(b1-3)Gal(b1-4)GlcNAc(b1-3)Gal(b1-4)GlcNAc(b1-2)Man(a1-3)[GlcNAc(b1-3)Gal(b1-4)GlcNAc(b1-3)Gal(b1-4)GlcNAc(b1-2)Man(a1-6)]Man(b1-4)GlcNAc(b1-4)GlcNAc. A digest of the protocol:
as §1

In assay [4] the target is GlcNAc(b1-3)Gal(b1-4)GlcNAc(b1-3)Gal(b1-4)GlcNAc(b1-2)Man(a1-3)[GlcNAc(b1-3)Gal(b1-4)GlcNAc(b1-3)Gal(b1-4)GlcNAc(b1-2)Man(a1-6)]Man(b1-4)GlcNAc(b1-4)[Fuc(a1-6)]GlcNAc. A digest of the protocol:
as §1

Assay [5] deals with GlcNAc(b1-3)Gal(b1-4)GlcNAc(b1-3)Gal(b1-4)GlcNAc(b1-2)[GlcNAc(b1-3)Gal(b1-4)GlcNAc(b1-3)Gal(b1-4)GlcNAc(b1-6)]Man(a1-6)[GlcNAc(b1-3)Gal(b1-4)GlcNAc(b1-3)Gal(b1-4)GlcNAc(b1-2)Man(a1-3)]Man(b1-4)GlcNAc(b1-4)[Fuc(a1-6)]GlcNAc. A digest of the protocol: as §1
Assay [6] deals with GlcNAc(b1-3)Gal(b1-4)GlcNAc(b1-3)Gal(b1-4)GlcNAc(b1-3)Gal(b1-4)GlcNAc(b1-2)Man(a1-3)[GlcNAc(b1-3)Gal(b1-4)GlcNAc(b1-3)Gal(b1-4)GlcNAc(b1-3)Gal(b1-4)GlcNAc(b1-2)Man(a1-6)]Man(b1-4)GlcNAc(b1-4)GlcNAc. A digest of the protocol: as §1
The target of assay [7] is GlcNAc(b1-3)Gal(b1-4)GlcNAc(b1-3)Gal(b1-4)GlcNAc(b1-3)Gal(b1-4)GlcNAc(b1-2)Man(a1-3)[GlcNAc(b1-3)Gal(b1-4)GlcNAc(b1-3)Gal(b1-4)GlcNAc(b1-3)Gal(b1-4)GlcNAc(b1-2)Man(a1-6)]Man(b1-4)GlcNAc(b1-4)[Fuc(a1-6)]GlcNAc. A digest of the protocol:
as §1

In assay [8] the target is GlcNAc(b1-3)Gal(b1-4)GlcNAc(b1-3)Gal(b1-4)GlcNAc(b1-3)Gal(b1-4)GlcNAc(b1-2)[GlcNAc(b1-3)Gal(b1-4)GlcNAc(b1-3)Gal(b1-4)GlcNAc(b1-3)Gal(b1-4)GlcNAc(b1-6)]Man(a1-6)[GlcNAc(b1-3)Gal(b1-4)GlcNAc(b1-3)Gal(b1-4)GlcNAc(b1-3)Gal(b1-4)GlcNAc(b1-2)Man(a1-3)]Man(b1-4)GlcNAc(b1-4)[Fuc(a1-6)]GlcNAc. A digest of the protocol: as §1
The target of assay [9] is GlcNAc(b1-3)Gal(b1-4)GlcNAc(b1-3)Gal(b1-4)GlcNAc(b1-3)Gal(b1-4)GlcNAc(b1-3)Gal(b1-4)GlcNAc(b1-2)Man(a1-3)[GlcNAc(b1-3)Gal(b1-4)GlcNAc(b1-3)Gal(b1-4)GlcNAc(b1-3)Gal(b1-4)GlcNAc(b1-3)Gal(b1-4)GlcNAc(b1-2)Man(a1-6)]Man(b1-4)GlcNAc(b1-4)GlcNAc. A digest of the protocol:
as §1

Assay [10] deals with GlcNAc(b1-3)Gal(b1-4)GlcNAc(b1-3)Gal(b1-4)GlcNAc(b1-3)Gal(b1-4)GlcNAc(b1-3)Gal(b1-4)GlcNAc(b1-2)Man(a1-3)[GlcNAc(b1-3)Gal(b1-4)GlcNAc(b1-3)Gal(b1-4)GlcNAc(b1-3)Gal(b1-4)GlcNAc(b1-3)Gal(b1-4)GlcNAc(b1-2)Man(a1-6)]Man(b1-4)GlcNAc(b1-4)[Fuc(a1-6)]GlcNAc. A digest of the protocol: as §1
For assay [11], the target named is GlcNAc(b1-3)Gal(b1-4)GlcNAc(b1-3)Gal(b1-4)GlcNAc(b1-3)Gal(b1-4)GlcNAc(b1-3)Gal(b1-4)GlcNAc(b1-2)[GlcNAc(b1-3)Gal(b1-4)GlcNAc(b1-3)Gal(b1-4)GlcNAc(b1-3)Gal(b1-4)GlcNAc(b1-3)Gal(b1-4)GlcNAc(b1-6)]Man(a1-6)[GlcNAc(b1-3)Gal(b1-4)GlcNAc(b1-3)Gal(b1-4)GlcNAc(b1-3)Gal(b1-4)GlcNAc(b1-3)Gal(b1-4)GlcNAc(b1-2)Man(a1-3)]Man(b1-4)GlcNAc(b1-4)[Fuc(a1-6)]GlcNAc. A digest of the protocol:
as §1

The target in assay [12] is GlcNAc(b1-3)Gal(b1-4)GlcNAc(b1-3)Gal(b1-4)GlcNAc(b1-3)GalNAc. A digest of the protocol:
as §1

Assay [13] deals with GlcNAc(b1-3)Gal(b1-4)GlcNAc(b1-3)GalNAc. A digest of the protocol: as §1
In assay [14] the target is GlcNAc(b1-3)Gal(b1-4)GlcNAc(b1-3)[GlcNAc(b1-3)Gal(b1-4)GlcNAc(b1-3)]GalNAc. A digest of the protocol: as §1
Assay [15] concerns the target GlcNAc(b1-3)Gal(b1-4)GlcNAc(b1-6)[Gal(b1-3)]GalNAc. A digest of the protocol:
as §1

Assay [16] deals with GlcNAc(b1-3)Gal(b1-4)GlcNAc(b1-6)[GlcNAc(b1-3)Gal(b1-3)]GalNAc. A digest of the protocol: as §1
Assay [17] deals with GlcNAc(b1-3)Gal(b1-4)GlcNAc(b1-6)[GlcNAc(b1-3)]Gal(b1-4)GlcNAc. A digest of the protocol:
as §1

The target of the next assay is GlcNAc(b1-3)GalNAc. A digest of the protocol: as §1
The target in the next assay is GlcNAc(b1-3)Man. A digest of the protocol:
as §1

Assay [18] has as its target GlcNAc(b1-3)[GlcNAc(b1-4)][GlcNAc(b1-6)]GlcNAc. A digest of the protocol: as §1
Assay [19] has as its target GlcNAc(b1-3)[GlcNAc(b1-6)]Gal(b1-4)GlcNAc. A digest of the protocol: as §1
Assay [20] addresses GlcNAc(b1-3)[GlcNAc(b1-6)]GalNAc. A digest of the protocol:
as §1

The target of assay [21] is GlcNAc(b1-4)Gal(b1-4)GlcNAc. A digest of the protocol: as §1

B1: Gal 10 (Homo sapiens), Q05315 (protein)
chain: MSLLPVPYTEAASLSTGSTVTIKGRPLVCFLNEPYLQVDFHTEMKEESDIVFHFQVCFGRRVVMNSREYGAWKQQVESKNMPFQDGQEFELSISVLPDKYQVMVNGQSSYTFDHRIKPEAVKMVQVWRDISLTKFNVSYLKR
On to B1, for which the “glycan array binding signal (z-score)” value was 1.46 in assay [1]; -0.579 in assay [2]; -0.042 in assay [3]; -0.188 in assay [4]; -0.466 in assay [5]; 0.482 in [6]. For the same molecule, the “glycan array binding signal (z-score)” value in assay [7] is 1.47; in assay [8], -0.236; in assay [9], -0.375; in assay [10], 0.893; in assay [11] it was 0.079; in assay [12], -0.542. Also, the “glycan array binding signal (z-score)” value in assay [13] was -0.558; in [14] it was -0.193; in [15] it was -0.388; in [16], -0.409; in assay [17], -0.241; with GlcNAc(b1-3)GalNAc, 0.05. Also, the “glycan array binding signal (z-score)” value with GlcNAc(b1-3)Man is -0.304; in assay [18] it was -0.039; in assay [19], -0.309; in [20], -0.018; in assay [21] it was -0.323.
